Experimental data published in the supplement of paper PMC7877785.
± gives the uncertainty stated by the source. Many entries were measured with a wide error.

Assay: self-splicing fitness, log relative to wild type (ln ratio); higher = more splicing; Tetrahymena group I intron in knt gene, E. coli kanamycin selection, DiMSum; sequences stand for … in CUCUCU…GGAGGGAAAAGUUAUCAGGCAUGCACCUGGUAGCUAGUCUUUAAACCAAUAGAUUGCAUCGGUUUAAAAGGCAAGACCGUCAAAUUGCGGGAAAGGGGUCAACAGCCGUUCAGUACCAAGUCUCAGGGGAAACUUUGAGAUGGCCUUGCAAAGGGUAUGGUAAUAAGCUGACGGACAUGGUCCUAACCACGCAGCCAAGUCCUAAGUCAACAGAUCUUCUGUUGAUAUGGAUGCAGUUCACAGACUAAAUGUCGGUCGGGGAAGAUGUAUUCUUCUCAUAAGAUAUAGUCGGACCUCUCCUUAAUGGGAGCUAGCGGAUGAAGUGAUGCAACACUGGAGCCGCUGGGAACUAAUUUGUAUGCGAAAGUAUAUUGAUUAGUUUUGGAGUACUCGUGGUCG
Summary of the method: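 Pooled colonies went to amplicon sequencing on an Illumina HiSeq 2500 after six replicate transformations. The plates were LB agar with 100 μg/mL carbenicillin, 50 μM IPTG and 0.2% rhamnose, with or without 25 μg/mL kanamycin, incubated overnight at 37°C or 30°C. The E. coli BL21(DE3) library had all eight P1ex-region intron nucleotides randomised, the intron placed in the knt kanamycin-resistance gene on pET-22b(+). DiMSum fitness is the error-weighted combination of replicate fold changes, kanamycin against none, normalised to wild type.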

## UACGAGCAAUAUUACGUGCC
37 °C
  self-splicing fitness (ln): -2.98 ± 1.1

## CUAUAGCAAUAUUACGUAUU
37 °C
  self-splicing fitness (ln): -3.25 ± 0.52

## UUGGAGCAAUAUUACGCAUA
30 °C
  self-splicing fitness (ln): -0.86 ± 1
37 °C
  self-splicing fitness (ln): -0.86 ± 0.56

## UAGGAGCAAUAUUACGAACC
37 °C
  self-splicing fitness (ln): -1.93 ± 0.66

## GUUUAGCAAUAUUACGGUUG
30 °C
  self-splicing fitness (ln): -3.13 ± 0.36
37 °C
  self-splicing fitness (ln): -1.47 ± 0.28

## UCGGAGCAAUAUUACGAGUU
37 °C
  self-splicing fitness (ln): -2.45 ± 0.55

## GUUAAGCAAUAUUACGCCAA
37 °C
  self-splicing fitness (ln): -1.02 ± 0.64

## AAUGAGCAAUAUUACGGACG
37 °C
  self-splicing fitness (ln): -3.66 ± 0.6

## GGGGAGCAAUAUUACGAGAA
30 °C
  self-splicing fitness (ln): -0.484 ± 1.1

## UUGUAGCAAUAUUACGAUCU
30 °C
  self-splicing fitness (ln): -3.81 ± 0.52

## UGGGAGCAAUAUUACGAGGA
30 °C
  self-splicing fitness (ln): -1.42 ± 0.56

## GGUGAGCAAUAUUACGCGCC
30 °C
  self-splicing fitness (ln): -2.97 ± 0.77
37 °C
  self-splicing fitness (ln): -0.795 ± 0.53

## GGCAAGCAAUAUUACGUGCC
30 °C
  self-splicing fitness (ln): -3.73 ± 0.52

## CUAUAGCAAUAUUACGCACU
30 °C
  self-splicing fitness (ln): -4.41 ± 1
37 °C
  self-splicing fitness (ln): -3.01 ± 1

## UUGGAGCAAUAUUACGGAAU
30 °C
  self-splicing fitness (ln): -2.98 ± 0.54
37 °C
  self-splicing fitness (ln): -4.04 ± 0.72

## CGCUAGCAAUAUUACGAGAA
30 °C
  self-splicing fitness (ln): -4.04 ± 1.1

## GGUGAGCAAUAUUACGCAAG
30 °C
  self-splicing fitness (ln): -5.68 ± 1

## AAUCAGCAAUAUUACGUGUU
30 °C
  self-splicing fitness (ln): -0.901 ± 0.056
37 °C
  self-splicing fitness (ln): 0.209 ± 0.064

## GCGUAGCAAUAUUACGCCAC
30 °C
  self-splicing fitness (ln): -2.09 ± 1.4

## UAGGAGCAAUAUUACGUCGC
37 °C
  self-splicing fitness (ln): -2.48 ± 1.1

## UAGAAGCAAUAUUACGCGAU
37 °C
  self-splicing fitness (ln): -2.86 ± 1.1

## AAGGAGCAAUAUUACGAAAC
30 °C
  self-splicing fitness (ln): -3.26 ± 0.64
37 °C
  self-splicing fitness (ln): -2.48 ± 0.77

## UAGGAGCAAUAUUACGAAGU
30 °C
  self-splicing fitness (ln): -4.06 ± 0.59

## AGGGAGCAAUAUUACGUAGC
37 °C
  self-splicing fitness (ln): -2.52 ± 1.1

## UCGGAGCAAUAUUACGCUCA
30 °C
  self-splicing fitness (ln): -4 ± 1
37 °C
  self-splicing fitness (ln): -3.99 ± 1

## AGUUAGCAAUAUUACGAGAA
30 °C
  self-splicing fitness (ln): -2.47 ± 1.1
37 °C
  self-splicing fitness (ln): -1.54 ± 0.82

## CUUCAGCAAUAUUACGCUCA
30 °C
  self-splicing fitness (ln): -2.65 ± 0.77

## UUUUAGCAAUAUUACGGCCC
30 °C
  self-splicing fitness (ln): -1.81 ± 0.68

## GCGAAGCAAUAUUACGCGUC
30 °C
  self-splicing fitness (ln): -5.74 ± 0.71

## CUAUAGCAAUAUUACGUACU
37 °C
  self-splicing fitness (ln): -2.74 ± 0.76

## UGAGAGCAAUAUUACGGGAA
30 °C
  self-splicing fitness (ln): -1.81 ± 0.51
37 °C
  self-splicing fitness (ln): -3.14 ± 0.74

## CACCAGCAAUAUUACGCGGG
30 °C
  self-splicing fitness (ln): -3.44 ± 0.16
37 °C
  self-splicing fitness (ln): -2.4 ± 0.15

## GGGGAGCAAUAUUACGACGG
37 °C
  self-splicing fitness (ln): -1.51 ± 0.53

## UUAGAGCAAUAUUACGUGCC
30 °C
  self-splicing fitness (ln): -4.4 ± 0.72

## CAGAAGCAAUAUUACGCAAC
30 °C
  self-splicing fitness (ln): -4.44 ± 0.58

## CAAUAGCAAUAUUACGUUAC
30 °C
  self-splicing fitness (ln): -4.15 ± 0.51

## UAAUAGCAAUAUUACGGGUA
30 °C
  self-splicing fitness (ln): -1.9 ± 0.17
37 °C
  self-splicing fitness (ln): -0.433 ± 0.14

## AAAUAGCAAUAUUACGUUUC
37 °C
  self-splicing fitness (ln): -2.93 ± 0.75

## GAAGAGCAAUAUUACGAGCG
30 °C
  self-splicing fitness (ln): -3.17 ± 0.2
37 °C
  self-splicing fitness (ln): -0.882 ± 0.17

## GAGCAGCAAUAUUACGAUAC
30 °C
  self-splicing fitness (ln): -1.61 ± 0.12
37 °C
  self-splicing fitness (ln): -1.45 ± 0.15

## AGUUAGCAAUAUUACGCUUG
30 °C
  self-splicing fitness (ln): -4.14 ± 0.51
37 °C
  self-splicing fitness (ln): -1.83 ± 0.23

## CGGGAGCAAUAUUACGCGUU
37 °C
  self-splicing fitness (ln): -1.4 ± 0.53

## UUGUAGCAAUAUUACGGCCC
30 °C
  self-splicing fitness (ln): 0.255 ± 0.82

## ACGUAGCAAUAUUACGAAUG
30 °C
  self-splicing fitness (ln): -2.89 ± 0.13
37 °C
  self-splicing fitness (ln): -1.53 ± 0.12

## CUUCAGCAAUAUUACGGACC
30 °C
  self-splicing fitness (ln): -3.73 ± 0.6
37 °C
  self-splicing fitness (ln): -2.77 ± 1.1

## CUUUAGCAAUAUUACGGUCC
30 °C
  self-splicing fitness (ln): -3.49 ± 0.6

## CUUCAGCAAUAUUACGACUA
37 °C
  self-splicing fitness (ln): -2.82 ± 0.53

## CAUGAGCAAUAUUACGGGCC
30 °C
  self-splicing fitness (ln): -4.33 ± 1

## GCGUAGCAAUAUUACGUUGC
30 °C
  self-splicing fitness (ln): -2.42 ± 0.59
37 °C
  self-splicing fitness (ln): -1.77 ± 0.53
